Results from paper PMC12552961.
Results are given in words; binding and its absence hold for the method and conditions named. Binding seen in cells or lysates may run through a third protein. These calls come from enrichment with a bait or labelling near it, and not all partners need be listed.

Chains of the proteins cited; added tags and fusions are not shown.
UniProt Q6ZSJ8: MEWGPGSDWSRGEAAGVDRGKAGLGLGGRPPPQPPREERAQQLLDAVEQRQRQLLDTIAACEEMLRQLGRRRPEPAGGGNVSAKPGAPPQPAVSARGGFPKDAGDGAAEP
UniProt Q96SB4: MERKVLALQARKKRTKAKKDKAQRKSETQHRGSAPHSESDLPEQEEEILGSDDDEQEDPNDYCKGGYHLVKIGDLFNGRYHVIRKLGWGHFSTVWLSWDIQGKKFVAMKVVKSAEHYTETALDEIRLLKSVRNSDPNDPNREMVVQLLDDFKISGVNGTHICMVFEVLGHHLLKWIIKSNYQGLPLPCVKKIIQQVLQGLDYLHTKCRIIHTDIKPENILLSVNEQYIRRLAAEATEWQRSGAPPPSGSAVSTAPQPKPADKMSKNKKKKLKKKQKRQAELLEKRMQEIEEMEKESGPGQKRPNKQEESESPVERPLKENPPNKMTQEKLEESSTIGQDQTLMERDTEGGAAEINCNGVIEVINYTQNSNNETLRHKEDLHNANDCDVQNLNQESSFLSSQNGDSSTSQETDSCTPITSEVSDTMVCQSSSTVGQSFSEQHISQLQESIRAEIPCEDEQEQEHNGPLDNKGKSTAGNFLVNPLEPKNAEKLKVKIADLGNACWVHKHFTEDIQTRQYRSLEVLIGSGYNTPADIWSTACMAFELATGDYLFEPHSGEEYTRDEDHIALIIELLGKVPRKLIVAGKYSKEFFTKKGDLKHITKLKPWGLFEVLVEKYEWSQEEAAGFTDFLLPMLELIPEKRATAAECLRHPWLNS

Target: GFP-C1orf122 (Chromosome 1 open reading frame 122) (UniProt Q6ZSJ8)
Assay: affinity purification with mass spectrometry; GFP-Control or GFP-C1orf122 transfected into 293T cells, IP-MS

serine/arginine-rich protein-specific kinase 1 (SRPK1), endogenous in 293T cells (from UniProt Q96SB4 1-655) (enzyme)
binding: binds
